The list shows a part of the results. These are further read-outs of the screen, such as a control signal, another cell line or another target. No call is given for them. Most of these compounds were active or inconclusive in the main read-out, so they are no random draw. Words in brackets tell the shape of the fitted curve; partial curves, single points and poor fits give uncertain potencies.
Assay: qHTS Assay for Lipid Storage Modulators in Drosophila S3 Cells;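 on cell number change: cells counted by Cell Tracker Red CMTPX staining in the red channel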
Settings: BODIPY lipid droplet fluorescence, 18-24 h; for cell number change: measured here: cell count max response, cells fed with added oleic acid
Outline: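 Laser-scanning cytometry quantifies lipid droplet accumulation (500–530 nm total intensity; droplet/cell object ratio) in oleic acid-fed (400 uM added) Drosophila S3 cells treated with a concentration series. 20 uM Triacsin C defined 100% inhibition.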

[1] = measured here: cell number channel AC50, cells fed with added oleic acid
[2] = measured here: lipid fluorescence (Fed channel) AC50, cells fed with added oleic acid

SMILES | cell number change | AC50 [1] | AC50 [2]
CSc1nsc(SC)c1NC(=O)OCC1CCCO1 (stereo not given) | 192% | 14.6 µM [rising, partial curve] | 20.6 µM [rising, partial curve]
CC(C)n1cc(-c2nc(C(=O)NN)cs2)c(=O)n(Cc2ccccc2)c1=O | -1.19% | – | 0.517 µM [rising, full curve, poor fit]
COC(=O)c1cc(=O)c2ccc(OC)cc2o1 | 1.24% | 7.31 µM [falling, partial curve, poor fit] | 0.0259 µM [falling, full curve, poor fit]
O=C(CC(Sc1ccccc1)c1cccs1)c1ccco1 (stereo not given) | -22.9% | – | 32.6 µM [falling, partial curve, poor fit]
O=C(COC(=O)c1ccccc1O)Nc1cc(S(=O)(=O)N2CCCCCC2)ccc1Cl | -25% | – | –
COc1ccc(/C=N/NC(=O)c2c(-c3ccccc3)noc2C)cc1 | 0.689% | 8.2 µM [rising, single point] | 8.2 µM [rising, partial curve, poor fit]
N#CCCN(Cc1cccnc1)C(=S)Nc1ccc(OC(F)F)cc1 | -32% | – | 5.17 µM [falling, partial curve]
COc1cc(CNCc2ccccc2)c(Br)cc1OC1CCCC1 | -48.9% | 15.8 µM [falling, single point] | 14.1 µM [falling, single point]
O=c1[nH]c2c(c3c1CCCC3)CCCC2 | 2.18% | 0.517 µM [falling, full curve, poor fit] | –
CC1(C)Cc2c(c(N3CCCC3)nc3sc(C(=O)Nc4ccccc4)c(N)c23)CO1 | -7.08% | – | 6.51 µM [rising, single point]
COc1ccc([C@H]2CC(=O)C=C(c3cccc4c3sc3ccccc34)C2)cc1OC | -27.6% | – | –
C=CCn1c(SCc2ccc(Cl)cc2)nc2cc(C(=O)N3CCC(C(N)=O)CC3)ccc2c1=O | 46.7% | 10.3 µM [rising, single point] | 20.6 µM [rising, partial curve]
CC(NC(=O)C1CCC(=O)N1Cc1ccc(F)cc1)c1ccc2c(c1)OCCO2 (stereo not given) | -1.01% | – | 2.91 µM [rising, single point]
COCCNc1ccc([N+](=O)[O-])cc1C(=O)Nc1cccc(C)n1 | -12.3% | – | –
CCOC(=O)c1sc2nc(SCC#N)n(CC3CCCO3)c(=O)c2c1C (stereo not given) | – | 6.51 µM [rising, partial curve, poor fit] | 6.51 µM [rising, single point]
C/C(=C\C(=O)c1ccc(C)o1)Nc1ccc(C(=O)O)cc1C | -5.08% | 2.31 µM [falling, partial curve] | 11.6 µM [falling, partial curve]
CC(=O)N1CCc2c(sc(NC(=O)CS(=O)(=O)c3ccc(F)cc3)c2C#N)C1 | 21.5% | – | –
COc1cc(CCCN2C(=S)NC[C@@H]2c2ccccc2)cc(OC)c1OC | 11.8% | – | 9.2 µM [rising, single point]
COc1ccccc1NC(=O)c1ccc(-c2ccccc2F)o1 | 1.26% | – | 9.2 µM [rising, partial curve]

Reformatted: 14 of the compounds above
SMILES	cell number change	AC50 [1]	AC50 [2]
COC(=O)c1cc(=O)c2ccc(OC)cc2o1	1.24%	7.31 µM [falling, partial curve, poor fit]	0.0259 µM [falling, full curve, poor fit]
O=C(CC(Sc1ccccc1)c1cccs1)c1ccco1 (stereo not given)	-22.9%	–	32.6 µM [falling, partial curve, poor fit]
O=C(COC(=O)c1ccccc1O)Nc1cc(S(=O)(=O)N2CCCCCC2)ccc1Cl	-25%	–	–
COc1ccc(/C=N/NC(=O)c2c(-c3ccccc3)noc2C)cc1	0.689%	8.2 µM [rising, single point]	8.2 µM [rising, partial curve, poor fit]
N#CCCN(Cc1cccnc1)C(=S)Nc1ccc(OC(F)F)cc1	-32%	–	5.17 µM [falling, partial curve]
COc1cc(CNCc2ccccc2)c(Br)cc1OC1CCCC1	-48.9%	15.8 µM [falling, single point]	14.1 µM [falling, single point]
O=c1[nH]c2c(c3c1CCCC3)CCCC2	2.18%	0.517 µM [falling, full curve, poor fit]	–
CC1(C)Cc2c(c(N3CCCC3)nc3sc(C(=O)Nc4ccccc4)c(N)c23)CO1	-7.08%	–	6.51 µM [rising, single point]
COCCNc1ccc([N+](=O)[O-])cc1C(=O)Nc1cccc(C)n1	-12.3%	–	–
CCOC(=O)c1sc2nc(SCC#N)n(CC3CCCO3)c(=O)c2c1C (stereo not given)	–	6.51 µM [rising, partial curve, poor fit]	6.51 µM [rising, single point]
C/C(=C\C(=O)c1ccc(C)o1)Nc1ccc(C(=O)O)cc1C	-5.08%	2.31 µM [falling, partial curve]	11.6 µM [falling, partial curve]
CC(=O)N1CCc2c(sc(NC(=O)CS(=O)(=O)c3ccc(F)cc3)c2C#N)C1	21.5%	–	–
COc1cc(CCCN2C(=S)NC[C@@H]2c2ccccc2)cc(OC)c1OC	11.8%	–	9.2 µM [rising, single point]
COc1ccccc1NC(=O)c1ccc(-c2ccccc2F)o1	1.26%	–	9.2 µM [rising, partial curve]

Following part:

SMILES | cell number change | AC50 [1] | AC50 [2]
COc1ccc(C2C(C(=O)c3ccc(C)o3)=C(O)C(=O)N2Cc2cccnc2)cc1OC (stereo not given) | – | – | 0.103 µM [falling, full curve, poor fit]
O=C(COC(=O)c1ccc(Cl)c([N+](=O)[O-])c1)Nc1ccccc1OC(F)F | -50% | 29.1 µM [falling, partial curve, poor fit] | –
COc1ccc(C)cc1NC(=O)CSc1ccc(-c2ccco2)nn1 | -11.3% | 0.103 µM [rising, full curve, poor fit] | –
Cc1c(Br)c([N+](=O)[O-])nn1CC(=O)NCc1ccccc1 | 2.37% | 0.184 µM [rising, full curve, poor fit] | 0.13 µM [rising, full curve, poor fit]
CCn1nc(C(=O)Nc2nc3ccccc3[nH]2)c2ccccc2c1=O | 16.4% | – | 0.58 µM [rising, partial curve, poor fit]
O=C(CSc1nc(=O)n2ccccc2n1)OCc1ccccc1 | – | – | 0.366 µM [falling, partial curve]
Cc1ccc2c(c1)NC(=O)C(CC(=O)NCCCN1CCCCC1)O2 (stereo not given) | -7.55% | – | 0.206 µM [falling, full curve]
Cc1ccc2[nH]c3c(c2c1)CN(C(=O)CN1CCN(Cc2ccc4c(c2)OCO4)CC1)CC3 | -32.8% | 32.6 µM [falling, single point] | –
CC(C)(C)n1nnnc1C(c1ccc(C(F)(F)F)cc1)N(Cc1ccccc1)Cc1ccco1 (stereo not given) | -47.6% | 29.1 µM [falling, single point] | 29.1 µM [falling, single point]
Nc1cc2c([N+](=O)[O-])cccc2o1 | 2.08% | 0.517 µM [rising, single point] | –
CN(c1ccc(C(=O)Nc2nccs2)cc1)S(=O)(=O)c1ccccc1 | -5.18% | 0.184 µM [rising, full curve, poor fit] | 0.13 µM [rising, full curve, poor fit]
O=C(NC(=S)Nc1ccccc1Cl)c1cnn2c(C(F)(F)F)cc(C(F)(F)F)nc12 | -51.9% | 1.3 µM [falling, partial curve] | 1.3 µM [falling, full curve]
COc1cc(/C=C\C(=O)NCc2ccc3c(c2)cc(C)n3C)cc(OC)c1OC | 12.6% | – | 4.11 µM [rising, partial curve, poor fit]
CCN1CCCC1CNC(=O)Cn1cc2c(n1)CCC(C)C2 (stereo not given) | -6.51% | – | 20.6 µM [falling, single point]
CNS(=O)(=O)c1cccc(C(=O)NCC2CCCCC2)c1 | -2.7% | – | –
Cc1cccc2nc(CSc3ccc(Cl)cc3)cn12 | -16% | 6.51 µM [falling, single point] | 4.11 µM [falling, full curve]
CCOc1c(CNCc2ccc(C(=O)O)cc2)cccc1OC | 48.4% | 29.1 µM [rising, single point] | –
S=C(NCCc1ccccc1)NC1CC1 | – | – | 1.46 µM [rising, partial curve]
CCOC(=O)c1oc2nc(C(C)C)c3c(c2c1N)CCC3 | 11.9% | – | 0.0651 µM [rising, full curve, poor fit]

SMILES | cell number change | AC50 [1] | AC50 [2]
Cc1nnc(NC(=O)CCSc2ccc(Cl)cc2)s1 | 0.088% | 0.731 µM [falling, partial curve] | –
O=C(NCC1CCCCC1)C1CCCN(C(=O)NC2CCCCC2)C1 (stereo not given) | -0.209% | – | 10.3 µM [rising, single point]
CCCn1c(=N)c(C#N)cc2c(=O)n3cccc(C)c3nc21 | 6.2% | – | 6.51 µM [rising, partial curve, poor fit]
O=C(Nc1ncn[nH]1)c1ccc(Cl)c(S(=O)(=O)N2CCCCCC2)c1 | – | 0.0411 µM [rising, single point] | –
COc1cccc(C(C(=O)NC2CCCC2)N(C(=O)c2ccco2)c2ccc(NC(C)=O)cc2)c1OC (stereo not given) | -7.89% | 0.116 µM [falling, full curve, poor fit] | 7.08 µM [falling, partial curve]
CCOC(=O)c1c(-c2ccccc2)n(C)c2ccc(O)cc12 | 71.9% | 10.3 µM [rising, partial curve] | 18.4 µM [rising, partial curve]
COC(CNC(=O)c1ccc2c3c(onc13)-c1ccccc1C2=O)OC | -53.9% | 16.4 µM [falling, partial curve] | 10.3 µM [falling, partial curve]
O=C(/C=C/c1ccc(F)cc1)Nc1ccc2[nH]c(=O)[nH]c2c1 | 2.61% | 6.51 µM [falling, single point] | 2.91 µM [falling, partial curve, poor fit]
CCOC(=O)C1CCCCN1Cc1cn(C)nc1-c1ccccc1F (stereo not given) | -25.7% | – | 29.1 µM [falling, single point]
CSc1nsc(SC)c1C(=O)N1CCN(S(=O)(=O)c2ccc(C)cc2)C1C(C)C (stereo not given) | -21.3% | – | 29.1 µM [falling, single point]
Cc1cc(=O)oc2ccc(OCC(=O)NCc3ccco3)cc12 | – | – | 4.11 µM [falling, partial curve, poor fit]
O=C(Cc1ccccc1)N1CCC(C(=O)N2CCN(c3ccc(F)cc3)CC2)CC1 | – | 0.651 µM [rising, partial curve] | 0.517 µM [rising, partial curve]
CCOCCCNC(=O)c1ccc(N2CC3CC(C2)c2cccc(=O)n2C3)c(NC(=O)Nc2cccc(OC)c2)c1 (stereo not given) | 8.9% | – | 25.9 µM [rising, partial curve]
O=C(Nc1cccc(S(=O)(=O)N2CCOCC2)c1)[C@@H]1CCCN1S(=O)(=O)c1ccc(Cl)cc1 | 27.9% | – | –
OC(CCc1ccncc1)c1ccccc1 (stereo not given) | 21.9% | – | 4.61 µM [rising, partial curve, poor fit]
CC(n1cnnn1)C12CC3CC(CC(C3)C1)C2 (stereo not given) | -17.1% | – | 0.651 µM [falling, single point]
Cc1ccccc1NC(=O)c1ccc(C)c(S(=O)(=O)Nc2cccnc2)c1 | -17.6% | – | 0.116 µM [falling, full curve, poor fit]
COc1ccc(C)cc1NC(=O)NC(C)c1ccc2c(c1)OCO2 (stereo not given) | – | – | 6.51 µM [falling, partial curve, poor fit]

Copied from the results shown, 2 compounds:
SMILES | cell number change | AC50 [1] | AC50 [2]
O=C(Nc1ncn[nH]1)c1ccc(Cl)c(S(=O)(=O)N2CCCCCC2)c1 | – | 0.0411 µM [rising, single point] | –
COc1cccc(C(C(=O)NC2CCCC2)N(C(=O)c2ccco2)c2ccc(NC(C)=O)cc2)c1OC (stereo not given) | -7.89% | 0.116 µM [falling, full curve, poor fit] | 7.08 µM [falling, partial curve]

— PubChem BioAssay AID2685 (National Center for Advancing Translational Sciences (NCATS), 2010)
